Measurements as given in article doi:10.1101/2020.02.26.964981.
No constants are given. Whether binding was seen depends on the method and setting. In cells and extracts the contact can be indirect. Some entries that bind do so weakly or less than the wild type. Values belong to the molecule of their own block, whether it stands above or below them.

Amino acid sequences for entries named in this document (tags omitted).
UniProt Q3TKT4: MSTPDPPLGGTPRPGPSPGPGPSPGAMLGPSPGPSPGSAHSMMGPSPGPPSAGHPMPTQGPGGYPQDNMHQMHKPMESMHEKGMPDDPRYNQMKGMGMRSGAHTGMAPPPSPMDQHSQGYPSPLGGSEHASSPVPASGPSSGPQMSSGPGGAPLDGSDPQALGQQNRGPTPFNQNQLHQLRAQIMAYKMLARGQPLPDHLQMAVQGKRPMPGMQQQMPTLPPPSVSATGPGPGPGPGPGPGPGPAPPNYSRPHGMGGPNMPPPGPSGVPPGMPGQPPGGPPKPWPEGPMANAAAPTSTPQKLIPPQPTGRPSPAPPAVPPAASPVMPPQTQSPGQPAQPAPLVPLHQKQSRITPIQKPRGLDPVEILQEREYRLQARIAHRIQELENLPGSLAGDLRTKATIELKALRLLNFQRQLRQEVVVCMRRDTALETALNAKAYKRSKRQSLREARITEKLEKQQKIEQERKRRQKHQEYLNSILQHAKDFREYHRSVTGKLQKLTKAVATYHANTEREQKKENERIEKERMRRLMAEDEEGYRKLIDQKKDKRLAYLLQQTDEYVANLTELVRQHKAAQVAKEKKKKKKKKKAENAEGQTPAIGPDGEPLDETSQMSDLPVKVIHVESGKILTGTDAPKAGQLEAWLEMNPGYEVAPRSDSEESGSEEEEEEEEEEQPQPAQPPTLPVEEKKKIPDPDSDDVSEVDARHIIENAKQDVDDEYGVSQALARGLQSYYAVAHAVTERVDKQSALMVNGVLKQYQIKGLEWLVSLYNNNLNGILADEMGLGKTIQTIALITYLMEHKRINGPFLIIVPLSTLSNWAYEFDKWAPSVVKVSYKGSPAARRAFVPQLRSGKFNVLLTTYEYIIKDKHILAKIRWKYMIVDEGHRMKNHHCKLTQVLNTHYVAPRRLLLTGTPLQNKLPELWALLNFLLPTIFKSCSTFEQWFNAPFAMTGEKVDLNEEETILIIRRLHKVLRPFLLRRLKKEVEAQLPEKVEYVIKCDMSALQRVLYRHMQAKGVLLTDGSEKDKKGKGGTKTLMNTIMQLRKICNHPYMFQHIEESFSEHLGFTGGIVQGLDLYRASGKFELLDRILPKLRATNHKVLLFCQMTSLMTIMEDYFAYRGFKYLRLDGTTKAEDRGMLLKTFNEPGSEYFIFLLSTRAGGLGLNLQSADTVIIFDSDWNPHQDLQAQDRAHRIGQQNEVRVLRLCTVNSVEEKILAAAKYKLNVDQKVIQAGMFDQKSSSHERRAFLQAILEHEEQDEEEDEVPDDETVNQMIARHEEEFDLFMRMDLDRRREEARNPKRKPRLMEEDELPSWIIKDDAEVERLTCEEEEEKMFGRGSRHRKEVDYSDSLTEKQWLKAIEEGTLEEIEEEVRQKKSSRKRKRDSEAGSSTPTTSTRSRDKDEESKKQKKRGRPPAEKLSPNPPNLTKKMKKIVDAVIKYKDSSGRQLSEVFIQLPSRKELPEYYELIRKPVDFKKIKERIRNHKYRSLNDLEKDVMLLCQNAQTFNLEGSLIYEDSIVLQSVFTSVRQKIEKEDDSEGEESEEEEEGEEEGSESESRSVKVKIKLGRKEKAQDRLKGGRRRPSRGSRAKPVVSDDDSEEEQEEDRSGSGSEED
UniProt A2BH40: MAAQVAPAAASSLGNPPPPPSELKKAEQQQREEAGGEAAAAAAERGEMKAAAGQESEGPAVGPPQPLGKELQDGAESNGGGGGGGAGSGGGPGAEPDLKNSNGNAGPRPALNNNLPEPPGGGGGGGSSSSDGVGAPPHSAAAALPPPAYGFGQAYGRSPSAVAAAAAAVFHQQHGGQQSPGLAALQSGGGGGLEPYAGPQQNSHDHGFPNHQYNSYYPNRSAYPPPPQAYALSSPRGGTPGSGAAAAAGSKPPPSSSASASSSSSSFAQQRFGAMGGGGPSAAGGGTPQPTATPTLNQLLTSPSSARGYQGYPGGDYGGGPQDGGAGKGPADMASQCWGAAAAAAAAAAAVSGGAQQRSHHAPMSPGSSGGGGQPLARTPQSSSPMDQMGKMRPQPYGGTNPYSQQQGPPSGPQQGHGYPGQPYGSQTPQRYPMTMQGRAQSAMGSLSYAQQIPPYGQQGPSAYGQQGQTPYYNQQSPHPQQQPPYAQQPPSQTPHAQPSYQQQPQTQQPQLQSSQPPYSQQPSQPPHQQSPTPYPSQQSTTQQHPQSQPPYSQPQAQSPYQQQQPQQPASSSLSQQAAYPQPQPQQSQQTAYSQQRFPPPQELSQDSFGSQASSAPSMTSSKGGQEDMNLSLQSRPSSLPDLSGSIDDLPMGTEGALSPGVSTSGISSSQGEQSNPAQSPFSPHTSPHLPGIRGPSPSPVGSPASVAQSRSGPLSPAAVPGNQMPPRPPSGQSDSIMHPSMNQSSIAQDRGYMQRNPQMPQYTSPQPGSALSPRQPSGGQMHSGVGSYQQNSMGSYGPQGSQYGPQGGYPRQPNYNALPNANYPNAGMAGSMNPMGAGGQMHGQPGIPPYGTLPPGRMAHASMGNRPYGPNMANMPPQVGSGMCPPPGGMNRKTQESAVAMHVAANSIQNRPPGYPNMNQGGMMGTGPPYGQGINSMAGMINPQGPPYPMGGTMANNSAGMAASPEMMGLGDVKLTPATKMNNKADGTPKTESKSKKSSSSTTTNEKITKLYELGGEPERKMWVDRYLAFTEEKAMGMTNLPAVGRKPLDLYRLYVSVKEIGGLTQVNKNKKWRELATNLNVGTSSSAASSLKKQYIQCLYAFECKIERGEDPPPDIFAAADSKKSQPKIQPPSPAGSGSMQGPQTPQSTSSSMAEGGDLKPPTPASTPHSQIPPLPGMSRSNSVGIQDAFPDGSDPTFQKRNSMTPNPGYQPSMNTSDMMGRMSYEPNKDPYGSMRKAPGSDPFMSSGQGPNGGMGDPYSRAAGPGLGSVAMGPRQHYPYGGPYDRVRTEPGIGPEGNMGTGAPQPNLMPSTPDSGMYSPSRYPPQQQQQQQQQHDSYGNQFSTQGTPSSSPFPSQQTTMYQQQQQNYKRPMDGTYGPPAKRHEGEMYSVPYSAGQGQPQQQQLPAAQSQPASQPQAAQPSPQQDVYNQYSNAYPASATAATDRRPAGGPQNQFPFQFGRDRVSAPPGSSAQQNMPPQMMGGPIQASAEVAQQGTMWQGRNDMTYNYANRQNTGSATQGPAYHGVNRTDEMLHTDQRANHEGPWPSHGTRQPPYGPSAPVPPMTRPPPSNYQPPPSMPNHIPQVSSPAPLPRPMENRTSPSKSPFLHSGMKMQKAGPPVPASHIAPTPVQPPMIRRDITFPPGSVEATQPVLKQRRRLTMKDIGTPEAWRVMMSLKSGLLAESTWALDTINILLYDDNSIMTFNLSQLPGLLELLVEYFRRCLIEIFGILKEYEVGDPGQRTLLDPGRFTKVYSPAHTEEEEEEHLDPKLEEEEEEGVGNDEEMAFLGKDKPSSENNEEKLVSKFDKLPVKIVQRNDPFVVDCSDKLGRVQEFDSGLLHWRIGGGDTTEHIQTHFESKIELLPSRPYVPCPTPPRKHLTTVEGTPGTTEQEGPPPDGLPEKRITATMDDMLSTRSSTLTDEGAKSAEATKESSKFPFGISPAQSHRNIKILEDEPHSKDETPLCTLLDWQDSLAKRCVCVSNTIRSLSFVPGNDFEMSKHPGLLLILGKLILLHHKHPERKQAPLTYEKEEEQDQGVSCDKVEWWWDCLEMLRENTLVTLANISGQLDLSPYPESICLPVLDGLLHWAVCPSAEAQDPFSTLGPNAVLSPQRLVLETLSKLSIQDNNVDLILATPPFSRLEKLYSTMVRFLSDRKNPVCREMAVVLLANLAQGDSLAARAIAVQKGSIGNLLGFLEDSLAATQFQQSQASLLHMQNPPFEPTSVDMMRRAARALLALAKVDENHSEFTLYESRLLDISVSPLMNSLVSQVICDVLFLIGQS
UniProt Q8BSQ9: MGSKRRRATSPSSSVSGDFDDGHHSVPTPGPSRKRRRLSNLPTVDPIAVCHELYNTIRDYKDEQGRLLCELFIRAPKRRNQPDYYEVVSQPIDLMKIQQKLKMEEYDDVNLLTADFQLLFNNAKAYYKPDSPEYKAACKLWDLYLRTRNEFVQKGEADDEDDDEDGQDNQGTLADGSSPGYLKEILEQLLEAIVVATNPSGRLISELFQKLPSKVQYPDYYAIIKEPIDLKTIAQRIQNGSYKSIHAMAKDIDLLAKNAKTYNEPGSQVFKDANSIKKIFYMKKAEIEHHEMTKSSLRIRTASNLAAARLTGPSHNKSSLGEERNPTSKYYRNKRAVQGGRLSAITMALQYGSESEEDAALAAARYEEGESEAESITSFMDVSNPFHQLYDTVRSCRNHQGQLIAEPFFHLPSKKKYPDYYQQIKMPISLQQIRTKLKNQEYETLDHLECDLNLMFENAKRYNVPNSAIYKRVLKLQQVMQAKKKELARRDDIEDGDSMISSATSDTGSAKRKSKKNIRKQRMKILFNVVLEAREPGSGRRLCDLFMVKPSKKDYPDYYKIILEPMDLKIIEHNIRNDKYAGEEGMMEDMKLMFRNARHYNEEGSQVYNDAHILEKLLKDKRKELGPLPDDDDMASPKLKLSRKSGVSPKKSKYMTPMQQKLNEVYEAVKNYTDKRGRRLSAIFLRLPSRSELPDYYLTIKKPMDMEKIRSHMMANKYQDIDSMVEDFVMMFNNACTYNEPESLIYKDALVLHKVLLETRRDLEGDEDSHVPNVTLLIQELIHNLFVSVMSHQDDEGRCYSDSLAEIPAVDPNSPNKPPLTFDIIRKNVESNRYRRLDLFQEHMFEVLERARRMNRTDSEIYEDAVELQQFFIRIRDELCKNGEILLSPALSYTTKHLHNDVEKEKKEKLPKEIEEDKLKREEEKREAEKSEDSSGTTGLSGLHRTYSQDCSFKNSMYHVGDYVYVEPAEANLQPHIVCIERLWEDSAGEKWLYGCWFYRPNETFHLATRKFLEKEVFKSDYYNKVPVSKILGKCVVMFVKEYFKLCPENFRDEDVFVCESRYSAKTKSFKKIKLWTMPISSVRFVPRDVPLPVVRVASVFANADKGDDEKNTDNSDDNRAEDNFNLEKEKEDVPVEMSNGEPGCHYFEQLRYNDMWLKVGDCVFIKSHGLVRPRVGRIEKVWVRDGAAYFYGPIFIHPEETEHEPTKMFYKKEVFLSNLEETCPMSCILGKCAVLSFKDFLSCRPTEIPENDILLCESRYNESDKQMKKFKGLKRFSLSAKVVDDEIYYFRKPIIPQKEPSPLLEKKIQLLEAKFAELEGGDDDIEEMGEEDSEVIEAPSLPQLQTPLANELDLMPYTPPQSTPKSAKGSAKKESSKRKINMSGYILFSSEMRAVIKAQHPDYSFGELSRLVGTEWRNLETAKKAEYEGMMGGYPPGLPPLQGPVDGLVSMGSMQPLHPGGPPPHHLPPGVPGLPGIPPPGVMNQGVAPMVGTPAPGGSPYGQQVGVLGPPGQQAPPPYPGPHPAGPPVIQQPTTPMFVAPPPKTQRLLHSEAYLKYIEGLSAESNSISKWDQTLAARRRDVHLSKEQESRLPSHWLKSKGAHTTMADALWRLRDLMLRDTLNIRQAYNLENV

Target: SMARCA4 (mouse (endogenous in Tregs)) (UniProt Q3TKT4)
Test: co-IP

binding: binds
Molecule: ARID1A (from UniProt A2BH40 1-2283)

binding: binds
Molecule: PBRM1 (from UniProt Q8BSQ9 1-1634)

binding: binds
Molecule: SMARCC1 (from UniProt P97496 1-1104)

binding: binds
B1: BRD9 (protein, UniProt Q3UQU0 1-596)
chain: MGKKHKKHKAEWRSSYEDYTDTPLEKPLKLVLKVGGSEVTELSGSGHDSSYYDDRSDHERERHREKKKKKKKKSEKEKHLDEEERRKRKEEKKRKREKEHCDSEGEADAFDPGKKVEVEPPPDRPVRACRTQPAENESTPIQRLLEHFLRQLQRKDPHGFFAFPVTDAIAPGYSMIIKHPMDFGTMKDKIVANEYKSVTEFKADFKLMCDNAMTYNRPDTVYYKLAKKILHAGFKMMSKAALLGSEDPAAEEPVPEVVPVQVETTKKSKKPSREVISCMFEPEGNACSLTDSTAEEHVLALVEHAADEARDRINRFLPGGKMGYLKKLGDGSLLYSVVNAPEPDADEEETHPVDLSSLSSKLLPGFTTLGFKDERRNKVTFLSSASTALSMQNNSVFGDLKSDEMELLYSAYGDETGVQCALSLQEFVKDAGSYSKKMVDDLLDQITGGDHSRMIFQLKQRRSIPMRPADEMKVGDPLGESGGPVLDFMSMKQYPDVSLDVSMLSSLGKVKKELDHEDSHLNLDETARLLQDLHEAQAERGGSRPSSNLSSLSTASEREHPPPGSPSRLSVGEQPDVAHDPYEFLQSPEPAAPAKN
